Measurements: the supplement of paper PMC12819154, “High-throughput peptide-centric local stability assay extends protein–ligand identification to membrane proteins, tissues and bacteria” (Nature Structural & Molecular Biology, 2025)
The other results are listed elsewhere or left out. Most values lie at the level of the controls, where differences are scatter.

The chains behind the UniProt entries cited, without tags or fusion partners. Where a name states a change or a piece, a line headed by the entry shows the natural chain unless it says otherwise.
UniProt Q640M1: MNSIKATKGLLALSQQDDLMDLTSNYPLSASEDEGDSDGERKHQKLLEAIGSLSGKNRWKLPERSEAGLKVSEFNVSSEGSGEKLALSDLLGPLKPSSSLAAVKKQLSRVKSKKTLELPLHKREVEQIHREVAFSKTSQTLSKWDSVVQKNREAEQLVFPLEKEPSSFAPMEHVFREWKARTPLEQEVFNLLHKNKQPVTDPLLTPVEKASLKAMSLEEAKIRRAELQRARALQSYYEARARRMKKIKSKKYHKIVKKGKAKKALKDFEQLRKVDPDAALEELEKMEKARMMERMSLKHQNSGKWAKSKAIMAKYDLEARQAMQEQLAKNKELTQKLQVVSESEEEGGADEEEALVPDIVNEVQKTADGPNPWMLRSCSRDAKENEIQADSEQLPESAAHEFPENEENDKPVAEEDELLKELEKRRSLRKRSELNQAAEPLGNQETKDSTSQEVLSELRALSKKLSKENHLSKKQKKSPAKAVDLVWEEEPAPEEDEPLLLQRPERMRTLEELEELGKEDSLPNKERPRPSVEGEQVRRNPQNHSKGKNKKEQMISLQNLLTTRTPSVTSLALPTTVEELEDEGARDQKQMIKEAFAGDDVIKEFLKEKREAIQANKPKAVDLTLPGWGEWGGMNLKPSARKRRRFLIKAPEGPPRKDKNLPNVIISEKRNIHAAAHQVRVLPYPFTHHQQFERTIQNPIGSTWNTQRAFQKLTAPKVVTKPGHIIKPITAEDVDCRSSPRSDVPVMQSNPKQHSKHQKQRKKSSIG
UniProt Q60991: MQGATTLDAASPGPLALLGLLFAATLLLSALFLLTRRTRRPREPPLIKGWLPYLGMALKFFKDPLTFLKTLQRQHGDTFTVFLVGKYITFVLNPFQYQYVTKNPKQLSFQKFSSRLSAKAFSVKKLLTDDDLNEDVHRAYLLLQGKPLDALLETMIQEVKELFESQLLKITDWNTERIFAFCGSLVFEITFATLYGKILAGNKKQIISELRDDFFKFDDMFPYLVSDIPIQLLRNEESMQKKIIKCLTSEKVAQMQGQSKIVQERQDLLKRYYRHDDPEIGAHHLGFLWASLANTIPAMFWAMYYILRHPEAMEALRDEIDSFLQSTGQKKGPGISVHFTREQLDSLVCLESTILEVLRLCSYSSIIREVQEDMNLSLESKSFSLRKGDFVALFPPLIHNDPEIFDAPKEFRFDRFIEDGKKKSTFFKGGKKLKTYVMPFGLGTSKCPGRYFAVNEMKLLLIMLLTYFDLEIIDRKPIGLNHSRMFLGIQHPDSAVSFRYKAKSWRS
UniProt Q5SUE8: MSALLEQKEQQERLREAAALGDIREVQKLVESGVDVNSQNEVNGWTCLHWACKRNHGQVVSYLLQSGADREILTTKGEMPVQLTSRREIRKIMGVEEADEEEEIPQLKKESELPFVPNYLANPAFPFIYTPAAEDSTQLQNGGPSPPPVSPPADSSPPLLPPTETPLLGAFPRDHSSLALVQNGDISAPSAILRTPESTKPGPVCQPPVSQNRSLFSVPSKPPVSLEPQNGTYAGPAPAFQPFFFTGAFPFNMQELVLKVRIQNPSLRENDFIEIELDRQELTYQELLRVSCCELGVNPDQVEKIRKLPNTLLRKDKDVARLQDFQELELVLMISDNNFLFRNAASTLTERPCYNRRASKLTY
UniProt Q5UAK0: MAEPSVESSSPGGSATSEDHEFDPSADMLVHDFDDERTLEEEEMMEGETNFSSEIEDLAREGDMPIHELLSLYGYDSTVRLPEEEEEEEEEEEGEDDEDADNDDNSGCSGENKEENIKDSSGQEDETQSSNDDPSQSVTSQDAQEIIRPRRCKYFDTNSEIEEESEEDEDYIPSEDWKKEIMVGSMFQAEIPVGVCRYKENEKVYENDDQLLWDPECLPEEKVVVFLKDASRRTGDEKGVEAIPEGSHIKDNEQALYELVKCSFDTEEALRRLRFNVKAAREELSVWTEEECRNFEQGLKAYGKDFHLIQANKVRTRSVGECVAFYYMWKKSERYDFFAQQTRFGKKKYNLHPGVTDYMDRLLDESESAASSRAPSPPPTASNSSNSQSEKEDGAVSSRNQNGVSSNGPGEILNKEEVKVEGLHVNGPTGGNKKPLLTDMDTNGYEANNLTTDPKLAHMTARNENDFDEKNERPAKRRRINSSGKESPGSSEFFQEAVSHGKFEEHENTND
UniProt Q63961: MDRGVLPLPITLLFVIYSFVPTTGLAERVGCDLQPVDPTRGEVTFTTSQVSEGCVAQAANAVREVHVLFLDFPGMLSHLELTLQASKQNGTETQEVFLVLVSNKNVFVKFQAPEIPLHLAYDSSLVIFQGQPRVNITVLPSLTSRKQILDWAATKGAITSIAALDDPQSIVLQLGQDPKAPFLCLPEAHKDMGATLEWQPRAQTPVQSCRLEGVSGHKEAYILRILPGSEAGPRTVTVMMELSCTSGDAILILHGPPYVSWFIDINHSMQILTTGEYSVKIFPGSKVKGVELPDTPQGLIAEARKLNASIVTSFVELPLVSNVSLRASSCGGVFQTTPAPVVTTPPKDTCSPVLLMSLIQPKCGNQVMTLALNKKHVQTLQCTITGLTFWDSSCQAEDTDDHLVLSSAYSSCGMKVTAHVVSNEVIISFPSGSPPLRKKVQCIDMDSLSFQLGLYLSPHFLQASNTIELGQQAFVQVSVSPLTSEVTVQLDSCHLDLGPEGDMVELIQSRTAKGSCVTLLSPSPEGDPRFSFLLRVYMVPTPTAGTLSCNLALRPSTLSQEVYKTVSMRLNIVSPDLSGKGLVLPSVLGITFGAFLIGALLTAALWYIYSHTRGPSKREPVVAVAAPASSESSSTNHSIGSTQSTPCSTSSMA
UniProt Q61072: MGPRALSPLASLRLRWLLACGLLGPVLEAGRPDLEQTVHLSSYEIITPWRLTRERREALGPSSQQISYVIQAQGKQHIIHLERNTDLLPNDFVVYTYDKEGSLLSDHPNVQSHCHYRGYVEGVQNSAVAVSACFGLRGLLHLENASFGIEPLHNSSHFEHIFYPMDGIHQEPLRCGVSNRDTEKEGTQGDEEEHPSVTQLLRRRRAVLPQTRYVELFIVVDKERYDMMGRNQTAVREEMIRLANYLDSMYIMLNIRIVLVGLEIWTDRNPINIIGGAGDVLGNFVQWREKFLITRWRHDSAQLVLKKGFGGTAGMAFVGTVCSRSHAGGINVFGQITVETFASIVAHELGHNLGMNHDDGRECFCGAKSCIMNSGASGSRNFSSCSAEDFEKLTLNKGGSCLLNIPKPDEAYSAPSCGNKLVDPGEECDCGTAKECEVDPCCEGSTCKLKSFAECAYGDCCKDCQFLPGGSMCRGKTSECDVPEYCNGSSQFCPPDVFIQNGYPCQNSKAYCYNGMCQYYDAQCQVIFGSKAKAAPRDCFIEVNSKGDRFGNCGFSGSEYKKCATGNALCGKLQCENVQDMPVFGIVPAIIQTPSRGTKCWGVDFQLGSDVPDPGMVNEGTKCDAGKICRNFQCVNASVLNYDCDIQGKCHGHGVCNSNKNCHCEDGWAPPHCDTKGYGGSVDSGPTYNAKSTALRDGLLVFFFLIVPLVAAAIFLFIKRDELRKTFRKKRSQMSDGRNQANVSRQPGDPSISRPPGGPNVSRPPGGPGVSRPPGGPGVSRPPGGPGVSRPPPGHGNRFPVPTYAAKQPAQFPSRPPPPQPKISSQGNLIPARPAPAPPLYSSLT
UniProt Q66GT5: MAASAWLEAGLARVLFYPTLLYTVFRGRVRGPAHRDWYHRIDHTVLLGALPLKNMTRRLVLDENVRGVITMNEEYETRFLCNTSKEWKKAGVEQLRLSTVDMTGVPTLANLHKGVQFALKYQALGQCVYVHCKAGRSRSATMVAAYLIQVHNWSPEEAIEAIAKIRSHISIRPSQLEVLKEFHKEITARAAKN
UniProt Q62446: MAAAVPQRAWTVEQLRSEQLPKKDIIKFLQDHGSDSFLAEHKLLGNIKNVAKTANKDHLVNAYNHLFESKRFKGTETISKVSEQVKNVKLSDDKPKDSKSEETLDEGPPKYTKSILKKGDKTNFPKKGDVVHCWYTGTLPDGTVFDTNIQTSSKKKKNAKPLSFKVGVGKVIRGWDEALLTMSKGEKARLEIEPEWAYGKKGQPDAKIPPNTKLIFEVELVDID
UniProt Q62376, whole entry: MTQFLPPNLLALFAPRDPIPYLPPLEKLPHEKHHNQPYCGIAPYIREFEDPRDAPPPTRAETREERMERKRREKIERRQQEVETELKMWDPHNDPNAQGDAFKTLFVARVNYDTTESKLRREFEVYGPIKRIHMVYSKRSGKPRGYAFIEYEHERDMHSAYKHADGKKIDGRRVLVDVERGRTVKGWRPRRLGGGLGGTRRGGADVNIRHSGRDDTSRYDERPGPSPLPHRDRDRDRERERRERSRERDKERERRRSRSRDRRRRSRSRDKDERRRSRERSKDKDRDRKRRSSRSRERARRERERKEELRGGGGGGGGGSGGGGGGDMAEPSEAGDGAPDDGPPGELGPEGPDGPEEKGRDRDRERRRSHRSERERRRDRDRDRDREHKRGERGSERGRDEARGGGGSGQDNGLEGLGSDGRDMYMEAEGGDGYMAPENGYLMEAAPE
UniProt Q64387: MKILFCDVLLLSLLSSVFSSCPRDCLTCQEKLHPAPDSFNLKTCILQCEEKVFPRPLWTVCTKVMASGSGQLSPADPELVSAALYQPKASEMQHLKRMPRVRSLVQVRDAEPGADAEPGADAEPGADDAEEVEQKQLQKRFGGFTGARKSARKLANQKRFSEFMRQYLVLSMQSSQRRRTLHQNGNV
UniProt Q69Z38: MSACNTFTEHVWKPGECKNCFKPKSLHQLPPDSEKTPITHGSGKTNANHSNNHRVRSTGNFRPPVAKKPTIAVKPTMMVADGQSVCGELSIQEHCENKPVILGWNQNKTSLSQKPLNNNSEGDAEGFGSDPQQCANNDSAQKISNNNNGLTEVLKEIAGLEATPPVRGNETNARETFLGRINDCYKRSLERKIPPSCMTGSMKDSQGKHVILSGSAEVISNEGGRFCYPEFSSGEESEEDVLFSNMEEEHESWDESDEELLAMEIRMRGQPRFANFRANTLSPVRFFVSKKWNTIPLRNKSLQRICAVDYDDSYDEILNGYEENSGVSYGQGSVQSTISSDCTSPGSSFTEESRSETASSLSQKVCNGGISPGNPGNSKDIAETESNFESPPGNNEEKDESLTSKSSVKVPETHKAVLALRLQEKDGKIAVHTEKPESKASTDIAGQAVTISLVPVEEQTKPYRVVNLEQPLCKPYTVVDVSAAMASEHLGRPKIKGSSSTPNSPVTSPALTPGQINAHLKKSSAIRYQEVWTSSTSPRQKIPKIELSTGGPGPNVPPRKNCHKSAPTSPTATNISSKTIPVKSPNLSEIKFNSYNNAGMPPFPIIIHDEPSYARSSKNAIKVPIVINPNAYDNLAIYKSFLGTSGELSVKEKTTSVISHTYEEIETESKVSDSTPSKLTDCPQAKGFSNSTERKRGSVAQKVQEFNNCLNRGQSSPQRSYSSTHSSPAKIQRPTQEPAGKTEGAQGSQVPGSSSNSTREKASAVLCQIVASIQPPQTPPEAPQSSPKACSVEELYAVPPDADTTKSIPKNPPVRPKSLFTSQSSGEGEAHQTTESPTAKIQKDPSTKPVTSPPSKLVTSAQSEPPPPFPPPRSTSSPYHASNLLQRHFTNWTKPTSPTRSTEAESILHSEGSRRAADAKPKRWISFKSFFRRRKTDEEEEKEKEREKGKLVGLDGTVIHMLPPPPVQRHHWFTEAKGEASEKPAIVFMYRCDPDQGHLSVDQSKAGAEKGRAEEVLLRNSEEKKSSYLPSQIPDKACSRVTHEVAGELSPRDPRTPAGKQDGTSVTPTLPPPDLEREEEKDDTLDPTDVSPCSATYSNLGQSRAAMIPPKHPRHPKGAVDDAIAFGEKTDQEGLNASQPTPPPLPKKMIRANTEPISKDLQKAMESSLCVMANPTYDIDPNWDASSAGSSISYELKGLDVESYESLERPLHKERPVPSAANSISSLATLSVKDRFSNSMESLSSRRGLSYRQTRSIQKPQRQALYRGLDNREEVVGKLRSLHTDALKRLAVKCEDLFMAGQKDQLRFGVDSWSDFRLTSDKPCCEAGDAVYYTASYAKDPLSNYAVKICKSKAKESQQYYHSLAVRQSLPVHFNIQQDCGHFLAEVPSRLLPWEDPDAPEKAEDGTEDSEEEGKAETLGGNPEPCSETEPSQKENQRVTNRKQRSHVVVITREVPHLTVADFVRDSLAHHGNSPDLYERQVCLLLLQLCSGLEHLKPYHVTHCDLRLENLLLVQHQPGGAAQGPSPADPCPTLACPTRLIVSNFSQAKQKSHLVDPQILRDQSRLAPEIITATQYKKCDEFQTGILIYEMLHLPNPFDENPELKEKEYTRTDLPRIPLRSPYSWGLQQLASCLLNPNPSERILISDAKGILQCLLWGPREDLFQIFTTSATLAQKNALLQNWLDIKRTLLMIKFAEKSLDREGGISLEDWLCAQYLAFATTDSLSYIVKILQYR

The targets below were run with CN[C@@H]1C[C@H]2O[C@@](C)([C@@H]1OC)n1c3ccccc3c3c4c(c5c6ccccc6n2c5c31)C(=O)NC4 [staurosporine] (assay: log2 fold change of pooled soluble protein (PISA), ligand vs vehicle (log2 ratio); higher = more thermally stabilized). Settings: ligand concentration: 20 uM; assay format: PISA pool 52.9/55.5/58.6 C.

Target | log2 fold change of pooled soluble protein
UniProt Q62523 | 0.244
UniProt Q62318 | -0.00392
UniProt Q640M1 | 0.162
UniProt Q61549 | 0.121
UniProt Q61233 | 0.0288
UniProt Q60991 | 0.482
UniProt Q63836 | 0.0922
UniProt Q61739 | 0.1
UniProt Q61686 | 0.149
UniProt Q62086 | 0.0682
UniProt Q60854 | 0.064
UniProt Q60902 | -0.0215
UniProt Q60766 | -0.0251
UniProt Q61207 | -0.0133
UniProt Q5SUE8 | -0.113
UniProt Q6KCD5 | 0.0194
UniProt Q61144 | 0.347
UniProt Q61420 | -0.0959

Target | log2 fold change of pooled soluble protein
UniProt Q5UAK0 | -0.00995
UniProt Q63961 | 0.0765
UniProt Q61599 | 0.102
UniProt Q61072 | 0.0933
UniProt Q61171 | -0.000857
UniProt Q61335 | -0.122
UniProt Q5XJY4 | -0.107
UniProt Q66GT5 | -0.203
UniProt Q63829 | -0.102
UniProt Q61702 | -0.0536
UniProt Q60749 | 0.0439
UniProt Q64012 | -0.123
UniProt Q62446 | 0.0531
UniProt Q61102 | 0.00635
UniProt Q62376 | -0.0118
UniProt Q64459 | 0.0364
UniProt Q64387 | -0.514
UniProt Q69Z38 | 0.115

Three records drawn at random from those above, as already listed:
Target | log2 fold change of pooled soluble protein
UniProt Q64459 | 0.0364
UniProt Q62376 | -0.0118
UniProt Q60749 | 0.0439
